# In PubChem BioAssay AID2685 (National Center for Advancing Translational Sciences (NCATS), 2010):
# The other results are listed elsewhere or left out. These are further read-outs of the screen, such as a control signal, another cell line or another target. No call is given for them. Compounds called inactive in the main read-out are mostly missing here. Words in brackets tell the shape of the fitted curve; partial curves, single points and poor fits give uncertain potencies.
# Test: qHTS Assay for Lipid Storage Modulators in Drosophila S3 Cells;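 as to cell number change: cells counted by Cell Tracker Red CMTPX staining in the red channel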
# Conditions: BODIPY lipid droplet fluorescence, 18-24 h; for cell number change: measured here: cell count max response, cells fed with added oleic acid
# Summary of the method: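 Drosophila S3 cells loaded with oleic acid (400 uM, as added) and compounds at several concentrations; lipid droplets imaged by 488-nm laser-scanning cytometry, 500–530 nm intensity and object ratio to cell channel. Percent activity normalized to 20 uM Triacsin C.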
# [1] = measured here: lipid fluorescence (Fed channel) AC50, cells fed with added oleic acid
# [2] = measured here: cell number channel AC50, cells fed with added oleic acid
Structure (SMILES),cell number change [%],AC50 [1],AC50 [2]
Cc1cc(/C=N/n2cnnc2)c(C)n1-c1ccc(OCc2ccc(F)cc2)cc1,-27.5,"6.51 µM [falling, single point]",–
O=C(Nc1cccc(Cl)c1)C1CCCCC1,-16.6,"0.146 µM [falling, full curve, poor fit]",–
CC1(CC(=O)N/N=C/c2ccc(-c3cccc(C(F)(F)F)c3)o2)OCCO1,-23.2,"0.103 µM [rising, partial curve, poor fit]","0.461 µM [rising, partial curve, poor fit]"
c1csc(-c2ccnc3ncnn23)c1,-3.62,"7.31 µM [rising, partial curve]",–
Cc1nc2ccccc2n1CC(O)COCC1CC=CCC1 (centres undefined),-1.53,–,–
COc1ccc(S(=O)(=O)N/N=C(/C)c2ccc(Cl)cc2)cc1,-31.4,"0.58 µM [falling, full curve, poor fit]","10.3 µM [falling, single point]"
COc1ccc(N2CCN(CC(=O)Nc3nc4c(s3)CC(C)CC4)CC2)cc1 (centres undefined),-13.9,"14.6 µM [rising, single point]",–
O=C(COc1ccc2ccccc2c1)Nc1ccc(S(=O)(=O)N2CCCCCC2)cc1,-18.3,"29.1 µM [falling, single point]",–
Cc1cccc(OCCn2nc(C(=O)O)c3ccccc3c2=O)c1,–,"4.61 µM [rising, single point]","1.03 µM [rising, partial curve]"
CN(C)c1ccc(NC(=O)CSc2nc(C3CC3)nc3ccccc23)cc1,9.21,"2.51 µM [falling, partial curve]",–
COc1cc(C2CC(=O)c3cnc(N4CCN(Cc5ccccc5)CC4)nc3C2)cc(OC)c1OC (centres undefined),–,–,"0.92 µM [rising, partial curve]"
CCOC(=O)c1cc2c(=O)n3ccccc3nc2n(Cc2ccccc2)c1=N,–,–,"1.84 µM [rising, partial curve, poor fit]"
COc1ccc2c(c1)-c1c(sn(-c3ccccc3)c1=S)C(C)(C)N2,-55,"29.1 µM [falling, single point]","29.1 µM [falling, single point]"
Cc1ccc(-c2nnc(N3CCCCCC3)c3ccccc23)cc1,-15.7,"7.31 µM [falling, partial curve]",–
O=C(O)CCC(=O)Nc1ccc(C(=O)OC2CCCCC2)cc1,4.89,"0.0366 µM [rising, single point]",–
O=c1c(-c2ccccc2)c1-c1ccccc1,-49.5,"16.4 µM [falling, single point]","20.6 µM [falling, single point]"
Cc1nc2ccc(NS(=O)(=O)c3c(F)cc(F)cc3Br)cc2s1,22.3,–,–
Cc1ccc(S(=O)(=O)Nc2cc(=O)[nH]c(SCC(=O)Nc3cccc(C(F)(F)F)c3)n2)cc1,1.61,–,–
Cc1ccc(OCCN2CCN(c3nc(NCc4ccco4)c4ccccc4n3)CC2)cc1,-58.6,–,"32.6 µM [falling, partial curve, poor fit]"
COc1cccc(/C=N/NC(=O)CCNc2n[nH]c(=O)[nH]c2=O)c1OC,0.637,"29.1 µM [falling, single point]","0.103 µM [rising, full curve, poor fit]"
CCOC(=O)N1CCC(Nc2c(NCCN3CCN(Cc4ccccc4)CC3)c(=O)c2=O)CC1,-19.8,"32.6 µM [falling, single point]",–
C=C1C(C(=O)Nc2ccc(OCC)cc2)C1C(=O)Nc1ccc(OCC)cc1 (centres undefined),-1.37,"0.0231 µM [rising, full curve, poor fit]",–
O=C1CN(C(=O)COC(=O)C2CC(=O)N(Cc3ccco3)C2)c2ccccc2N1 (centres undefined),-6.01,"3.66 µM [falling, single point]",–
COc1ccc(/C=N/Nc2nc(=O)[nH]nc2C)cc1OC,-12.7,–,"2.59 µM [rising, single point]"
Cc1ccc(NC(=O)C2CC(=O)Nc3nncn32)cc1 (centres undefined),-45.5,"2.06 µM [falling, partial curve, poor fit]","23.1 µM [falling, partial curve]"
Cc1ccc(Oc2ccc(N)cc2)cc1,9.03,"0.731 µM [rising, full curve]","0.651 µM [rising, partial curve, poor fit]"
CC(C)(C)NC(=O)COC(=O)c1ccccc1C(=O)c1ccccc1,11.2,–,–
O=C(Nc1ccc2c(c1)OCO2)c1cnn2cccnc12,-1.56,"2.59 µM [rising, full curve]",–
COc1ccc(N2CCN(c3ncccc3C#N)CC2)cc1,13.4,"0.0517 µM [rising, full curve, poor fit]",–

# Three structures out of the list, ordered by molar mass, largest number first:
Structure (SMILES),cell number change [%],AC50 [1],AC50 [2]
COc1cc(C2CC(=O)c3cnc(N4CCN(Cc5ccccc5)CC4)nc3C2)cc(OC)c1OC (centres undefined),–,–,"0.92 µM [rising, partial curve]"
Cc1ccc(OCCN2CCN(c3nc(NCc4ccco4)c4ccccc4n3)CC2)cc1,-58.6,–,"32.6 µM [falling, partial curve, poor fit]"
O=C(Nc1cccc(Cl)c1)C1CCCCC1,-16.6,"0.146 µM [falling, full curve, poor fit]",–
